PubChem BioAssay AID1259424 – University of Nebraska Medical Center, 2018

Screen: 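Seek colon cancer survival genes behaving like KSR1, using a six-gene signature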 (primary screen)
Cell system: human HCT116 colon cancer cells
Reagent: siRNA pool against human genes, 50 nM
Measured: 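Six signature mRNAs by branched-DNA multiplex assay, scaled to two housekeeping genes and non-targeting median, log2; matched to mean KSR1 knockdown profile by Pearson correlation and euclidean distance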
Reading the numbers: mean correlation with KSR1 profile: higher = expression change more like KSR1 knockdown; mean distance from KSR1 profile: higher = expression change less like KSR1 knockdown
Shown is one part, drawn at random, of about 14,000 reagents. 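Higher correlation or smaller distance means closer resemblance to KSR1 loss; control wells, including KSR1 knockdowns, recur on many plates.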 Not all columns of the deposit are shown. Not stated in the record: the time to read-out.

For BARX1, the values are mean correlation with KSR1 profile 0.284; mean distance from KSR1 profile 3.79. Silencing of PEX3 resulted in: mean correlation with KSR1 profile 0.211; mean distance from KSR1 profile 3.15. With knock-down of FAM215A the results were mean correlation with KSR1 profile -0.523; mean distance from KSR1 profile 2.68. SULT1C4 scored mean correlation with KSR1 profile 0.344; mean distance from KSR1 profile 1.2. For FBXO11, the entry reads mean correlation with KSR1 profile -0.366; mean distance from KSR1 profile 2.29. After knock-down of VN1R4, the record shows mean correlation with KSR1 profile 0.624; mean distance from KSR1 profile 1.23.

PMP22 scored mean correlation with KSR1 profile -0.369; mean distance from KSR1 profile 2.97. Against POT1, the values are mean correlation with KSR1 profile 0.181; mean distance from KSR1 profile 1.72. Depletion of RPL39 came out at: mean correlation with KSR1 profile -0.551; mean distance from KSR1 profile 2.66. After knock-down of ZNF354A the results were mean correlation with KSR1 profile -0.437; mean distance from KSR1 profile 2.71. PLXNB3 showed mean correlation with KSR1 profile -0.63; mean distance from KSR1 profile 2.22. For TRO, the values are mean correlation with KSR1 profile 0.809; mean distance from KSR1 profile 1.77.

WDR25 scored mean correlation with KSR1 profile 0.446; mean distance from KSR1 profile 2.35. Knock-down of SNF8 gave: mean correlation with KSR1 profile -0.745; mean distance from KSR1 profile 1.47.

Already shown: entries from further up.
FBXO11 | mean correlation with KSR1 profile: -0.366; mean distance from KSR1 profile: 2.29
VN1R4 | mean correlation with KSR1 profile: 0.624; mean distance from KSR1 profile: 1.23
PMP22 | mean correlation with KSR1 profile: -0.369; mean distance from KSR1 profile: 2.97

The listing continues:
Against BACH2, the values are mean correlation with KSR1 profile 0.232; mean distance from KSR1 profile 2.92. Against C1orf35, the values are mean correlation with KSR1 profile -0.18; mean distance from KSR1 profile 1.73. AQR scored mean correlation with KSR1 profile -0.524; mean distance from KSR1 profile 1.42. Silencing of ADPRS resulted in: mean correlation with KSR1 profile 0.041; mean distance from KSR1 profile 3.41. For LCN1, the values are mean correlation with KSR1 profile -0.0498; mean distance from KSR1 profile 1.3. With knock-down of ELP5 the results were mean correlation with KSR1 profile -0.0421; mean distance from KSR1 profile 4.28.

Silencing of RTN4RL2 came out at: mean correlation with KSR1 profile -0.362; mean distance from KSR1 profile 4.18. With knock-down of SC5D the results were mean correlation with KSR1 profile -0.471; mean distance from KSR1 profile 2.88. For KLK7, the values are mean correlation with KSR1 profile 0.0648; mean distance from KSR1 profile 1.52. After knock-down of MATN2, the record shows mean correlation with KSR1 profile -0.186; mean distance from KSR1 profile 2.86. After knock-down of WNK4, the record shows mean correlation with KSR1 profile 0.384; mean distance from KSR1 profile 2.16. For NEK11, the values are mean correlation with KSR1 profile -0.342; mean distance from KSR1 profile 3.18.

Depletion of PBLD resulted in: mean correlation with KSR1 profile -0.373; mean distance from KSR1 profile 1.39. For RAB6C, the entry reads mean correlation with KSR1 profile 0.666; mean distance from KSR1 profile 0.833.
